Results are given in words; binding and its absence hold for the method and conditions named. Some binding calls cover weakened binding; strength is not graded here.

Protein sequences, listed by entry. Tags and fused reporters are not part of them. Lines headed by an entry give the natural chain unless they say otherwise; changes in a name come on top.
UniProt P04003: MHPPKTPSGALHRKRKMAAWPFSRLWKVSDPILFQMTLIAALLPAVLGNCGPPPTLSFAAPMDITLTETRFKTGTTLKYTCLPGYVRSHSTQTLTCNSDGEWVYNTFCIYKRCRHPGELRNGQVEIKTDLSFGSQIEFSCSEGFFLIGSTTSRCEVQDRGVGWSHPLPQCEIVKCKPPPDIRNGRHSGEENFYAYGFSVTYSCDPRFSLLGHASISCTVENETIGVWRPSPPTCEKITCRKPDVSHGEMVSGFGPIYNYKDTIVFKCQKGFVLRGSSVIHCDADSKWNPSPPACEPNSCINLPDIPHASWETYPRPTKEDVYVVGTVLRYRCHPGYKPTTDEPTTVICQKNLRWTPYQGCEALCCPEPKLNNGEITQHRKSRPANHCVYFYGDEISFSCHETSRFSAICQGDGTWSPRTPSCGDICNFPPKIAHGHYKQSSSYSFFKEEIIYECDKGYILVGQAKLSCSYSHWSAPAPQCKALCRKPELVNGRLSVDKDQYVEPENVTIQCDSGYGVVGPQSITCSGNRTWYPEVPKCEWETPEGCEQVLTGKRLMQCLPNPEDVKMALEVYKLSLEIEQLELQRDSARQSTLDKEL
UniProt P20851: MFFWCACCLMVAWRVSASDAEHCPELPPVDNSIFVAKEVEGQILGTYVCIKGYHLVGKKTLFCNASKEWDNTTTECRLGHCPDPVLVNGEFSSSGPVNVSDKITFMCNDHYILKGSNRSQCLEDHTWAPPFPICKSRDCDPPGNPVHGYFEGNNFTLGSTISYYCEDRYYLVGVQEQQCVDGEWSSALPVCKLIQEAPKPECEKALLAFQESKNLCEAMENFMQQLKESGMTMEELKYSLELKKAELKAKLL

The target of the assay is T1, purified recombinant M4 protein (Streptococcus pyogenes) (UniProt P13050).
T1 sequence: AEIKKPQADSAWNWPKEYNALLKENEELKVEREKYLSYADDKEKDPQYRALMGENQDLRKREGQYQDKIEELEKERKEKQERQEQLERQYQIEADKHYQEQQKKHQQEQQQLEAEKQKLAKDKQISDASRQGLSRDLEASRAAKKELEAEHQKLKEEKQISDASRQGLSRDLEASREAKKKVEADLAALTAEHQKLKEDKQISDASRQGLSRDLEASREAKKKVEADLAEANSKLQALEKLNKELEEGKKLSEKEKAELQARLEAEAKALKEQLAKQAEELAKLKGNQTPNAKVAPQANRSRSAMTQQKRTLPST
Put plainly: solid-phase binding test in microtiter wells (antibody and radiolabeled protein G detection); both purified.

Consider “human C4BP (from UniProt P04003;P20851) (complex)”, for which the binding result was “binds”.

These data come from paper PMC3630203.
